Paper PMC3747076

Sequences of proteins named here, by UniProt entry; tags and fusion partners are left off.
UniProt Q13242: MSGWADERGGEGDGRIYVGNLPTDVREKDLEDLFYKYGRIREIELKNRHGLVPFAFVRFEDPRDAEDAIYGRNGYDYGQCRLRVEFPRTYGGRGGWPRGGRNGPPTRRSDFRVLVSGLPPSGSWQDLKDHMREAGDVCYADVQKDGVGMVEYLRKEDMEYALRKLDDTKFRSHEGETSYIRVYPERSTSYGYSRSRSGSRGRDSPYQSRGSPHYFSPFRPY
UniProt Q07955: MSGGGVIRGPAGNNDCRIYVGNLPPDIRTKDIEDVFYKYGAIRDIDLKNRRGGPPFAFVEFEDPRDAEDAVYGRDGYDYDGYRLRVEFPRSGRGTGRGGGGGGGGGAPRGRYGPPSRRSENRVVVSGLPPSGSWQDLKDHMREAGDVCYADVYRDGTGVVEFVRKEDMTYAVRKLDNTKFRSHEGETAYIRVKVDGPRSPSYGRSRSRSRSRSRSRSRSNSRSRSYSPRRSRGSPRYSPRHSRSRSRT

Biological target: T1, FLAG-tagged Transformer-2β (Tra2β) (human) (UniProt P62995)
T1 sequence: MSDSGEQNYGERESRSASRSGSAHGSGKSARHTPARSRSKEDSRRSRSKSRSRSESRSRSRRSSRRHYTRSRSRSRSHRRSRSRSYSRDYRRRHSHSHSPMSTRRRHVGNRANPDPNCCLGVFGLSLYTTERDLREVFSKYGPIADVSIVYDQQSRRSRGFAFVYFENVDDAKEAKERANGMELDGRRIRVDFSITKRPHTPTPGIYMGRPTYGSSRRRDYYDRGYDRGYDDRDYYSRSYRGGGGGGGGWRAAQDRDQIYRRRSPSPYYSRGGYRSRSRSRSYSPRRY
Test: affinity purification with mass spectrometry; anti-FLAG antibody-agarose precipitates of RIPA lysates (with protease, phosphatase and ribonuclease inhibitors) of SH-SY5Y cells expressing FLAG-Tra2β or FLAG alone, overnight at 4°C; SDS-PAGE, silver staining, additional bands cut out and identified by mass spectrometry

| Substance | binding |
| --- | --- |
| SRp30c (from UniProt Q13242 1-221) | binds |
| ASF/SF2 (from UniProt Q07955 1-248) | binds |

No constants are given. Whether binding was seen depends on the method and setting. Binding seen in cells or lysates may run through a third protein. A yes stands for co-enrichment or nearness to the bait. Other partners may have been found. Where a sequence is shown, tags or fusion partners need not be part of it.
